Test results as given in patent US20240368279A1.
These are yes or no findings as the source states them, for the method shown. Some entries that bind do so weakly or less than the wild type.

The chains behind the UniProt entries cited, without tags or fusion partners. Residues count along the entry.
UniProt Q61735, residues 19-303: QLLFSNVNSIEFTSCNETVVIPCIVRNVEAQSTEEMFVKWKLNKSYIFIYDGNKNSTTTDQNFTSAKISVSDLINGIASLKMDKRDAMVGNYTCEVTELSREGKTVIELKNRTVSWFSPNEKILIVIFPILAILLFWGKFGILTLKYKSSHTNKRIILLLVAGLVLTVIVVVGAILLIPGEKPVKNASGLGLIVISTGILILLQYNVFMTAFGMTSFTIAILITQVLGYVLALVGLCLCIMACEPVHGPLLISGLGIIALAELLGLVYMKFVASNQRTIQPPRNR

Biological target: murine CD47 on B16 melanoma cells (mouse) (UniProt Q61735)
Assay: flow cytometry on B16 melanoma cells

B1: Hu004-73 antibody (full-length human IgG1, kappa) (antibody, V domains shown)
VH: EVQLVESGGGLVQPGGSLRLSCAASGFTFSGYGMSWVRQAPGKGLEWVATITSGGTYTYYPDSVKGRFTISRDNAKNSLYLQMNSLRAEDTAVYYCARSLAGNAMDYWGQGTLVTVSS
VL: DIQMTQSPSSLSASVGDRVTITCRAGQPLNNYLNWYQQKPGKPPRLLIYAASTLQSGVPSRFSGSGSGTDFTLTISGLQSEDFASYFCQHRVTFGPGTKVDVR
- binding: binds
